Test: general procedure: Boc solid-phase peptide synthesis; 4-methylbenzhydrylamine resin, theoretical loading 0.66 meq/g (Peptides International)
Conditions: whole synthesis, 223 nm, one disulfide bridge, sequence written open

| Substance | final HPLC purity |
| --- | --- |
| 1-Hmp-2-Phe-8-Dab-VT | 99.5% |
| 1-Hmp-2-Phe-8-Orn(Ala)-VT | 97.8% |

— patent EP0380554B1 (Ferring AB, priority 1987, dated 1993)
